Tested on: CA19-9 modified proteins
Test: CA19-9 IP/MS (iTRAQ) of organoid conditioned media after Dox treatment
Parameters: species or system mouse
Details: for 17 0H 5B1 (CA19-9 IP/MS relative abundance) / 17 0H NS19 (CA19-9 IP/MS relative abundance) / 17 8H 5B1 (CA19-9 IP/MS relative abundance) / 17 8H NS19 (CA19-9 IP/MS relative abundance): A217 organoid conditioned media; for 17 0H NS19 (CA19-9 IP/MS relative abundance) / 17 8H NS19 (CA19-9 IP/MS relative abundance) / 20 0H NS19 (CA19-9 IP/MS relative abundance) / 20 8H NS19 (CA19-9 IP/MS relative abundance): NS19-9; for 17 0H NS19 (CA19-9 IP/MS relative abundance): every printed value in this column is 1; for 20 0H 5B1 (CA19-9 IP/MS relative abundance) / 20 0H NS19 (CA19-9 IP/MS relative abundance) / 20 8H NS19 (CA19-9 IP/MS relative abundance) / 20 8H 5B1 (CA19-9 IP/MS relative abundance): A220 organoid conditioned media
[1] = A217 (genetic negative) organoids conditioned media, after 8 hours of treatment, CA19-9 IP with 5B1, relative to 17 0H NS19
[2] = A217 (genetic negative) organoids conditioned media, after 8 hours of treatment, CA19-9 IP with NS19-9, relative to 17 0H NS19
[3] = A217 (genetic negative) organoids conditioned media, before treatment (0H), CA19-9 IP with NS19-9, relative abundance, reference channel
[4] = A220 (C;R^LSL;F) organoids conditioned media, before treatment (0H), CA19-9 IP with 5B1, relative to 17 0H NS19
[5] = CA19-9 IP/MS relative abundance, A217 (genetic negative) organoid conditioned media, 0H (before treatment), IP with NS19-9, reference channel = 1
[6] = CA19-9 IP/MS relative abundance, A217 (genetic negative) organoid conditioned media, after 8 hours, IP with 5B1
[7] = CA19-9 IP/MS relative abundance, A217 (genetic negative) organoid conditioned media, after 8 hours, IP with NS19-9
[8] = CA19-9 IP/MS relative abundance, A220 (C;R^LSL;F) organoid conditioned media, 0H (before treatment), IP with 5B1

Substance	17 8H 5B1 [1]	17 8H NS19 [2]	17 0H NS19 [3]	20 0H 5B1 [4]	17 0H NS19 [5]	17 8H 5B1 [6]	17 8H NS19 [7]	20 0H 5B1 [8]	further results
P60766	2.179	0.616	1	1.597					
P60843	3.945	0.617	1	2.78					
P61407									17 0H 5B1 (CA19-9 IP/MS relative abundance): 0.571; 17 0H NS19 (CA19-9 IP/MS relative abundance): 1; 17 8H 5B1 (CA19-9 IP/MS relative abundance): 0.525; 17 8H NS19 (CA19-9 IP/MS relative abundance): 0.823; 20 0H 5B1 (CA19-9 IP/MS relative abundance): 0.299; 20 0H NS19 (CA19-9 IP/MS relative abundance): 0.185; 20 8H NS19 (CA19-9 IP/MS relative abundance): 0.224
P62334									17 0H 5B1 (CA19-9 IP/MS relative abundance): 1.651; 17 0H NS19 (CA19-9 IP/MS relative abundance): 1; 17 8H 5B1 (CA19-9 IP/MS relative abundance): 1.432; 17 8H NS19 (CA19-9 IP/MS relative abundance): 0.561; 20 0H 5B1 (CA19-9 IP/MS relative abundance): 1.279; 20 0H NS19 (CA19-9 IP/MS relative abundance): 0.524; 20 8H 5B1 (CA19-9 IP/MS relative abundance): 1.73; 20 8H NS19 (CA19-9 IP/MS relative abundance): 0.454
P63017					1	6.817	0.77	5.57	
P68372					1	4.135	0.585	3.906	
P68373					1	6.264	0.65	4.46	
P80317					1	2.42	0.66	2.041	
P99024					1	4.365	0.649	3.894	
P99027					1	4.951	0.448	4.357	
Q3THK7	2.592	0.747	1	2.124					
Q6P5H2									17 0H 5B1 (CA19-9 IP/MS relative abundance): 1.513; 17 0H NS19 (CA19-9 IP/MS relative abundance): 1; 17 8H 5B1 (CA19-9 IP/MS relative abundance): 0.707; 17 8H NS19 (CA19-9 IP/MS relative abundance): 1.712; 20 0H 5B1 (CA19-9 IP/MS relative abundance): 1.036; 20 0H NS19 (CA19-9 IP/MS relative abundance): 0.553; 20 8H 5B1 (CA19-9 IP/MS relative abundance): 2.072; 20 8H NS19 (CA19-9 IP/MS relative abundance): 0.582
Q6PDM2									17 0H 5B1 (CA19-9 IP/MS relative abundance): 0.997; 17 0H NS19 (CA19-9 IP/MS relative abundance): 1; 17 8H 5B1 (CA19-9 IP/MS relative abundance): 0.883; 17 8H NS19 (CA19-9 IP/MS relative abundance): 0.234; 20 0H 5B1 (CA19-9 IP/MS relative abundance): 0.809; 20 0H NS19 (CA19-9 IP/MS relative abundance): 0.214; 20 8H 5B1 (CA19-9 IP/MS relative abundance): 0.879; 20 8H NS19 (CA19-9 IP/MS relative abundance): 0.269
Q8JZQ9	1.39	0.455	1	1.286					
Q8VDD5	1.89	0.936	1	1.638					
Q8VEK3									17 0H 5B1 (CA19-9 IP/MS relative abundance): 2.14; 17 0H NS19 (CA19-9 IP/MS relative abundance): 1; 17 8H 5B1 (CA19-9 IP/MS relative abundance): 2.123; 17 8H NS19 (CA19-9 IP/MS relative abundance): 0.595; 20 0H 5B1 (CA19-9 IP/MS relative abundance): 1.932; 20 0H NS19 (CA19-9 IP/MS relative abundance): 0.665; 20 8H 5B1 (CA19-9 IP/MS relative abundance): 1.931; 20 8H NS19 (CA19-9 IP/MS relative abundance): 0.658
Q9CWF2					1	4.413	0.687	4.113	
Q9CXY6	1.028	0.299	1	0.822					
Q9D892									17 0H 5B1 (CA19-9 IP/MS relative abundance): 1.766; 17 0H NS19 (CA19-9 IP/MS relative abundance): 1; 17 8H 5B1 (CA19-9 IP/MS relative abundance): 2.106; 17 8H NS19 (CA19-9 IP/MS relative abundance): 0.855; 20 0H 5B1 (CA19-9 IP/MS relative abundance): 1.611; 20 0H NS19 (CA19-9 IP/MS relative abundance): 0.278; 20 8H 5B1 (CA19-9 IP/MS relative abundance): 2.111; 20 8H NS19 (CA19-9 IP/MS relative abundance): 0.635
Q9JHU4	1.14	0.538	1	1.088					
Q9QZD9									17 0H 5B1 (CA19-9 IP/MS relative abundance): 3.088; 17 8H 5B1 (CA19-9 IP/MS relative abundance): 3.321; 17 8H NS19 (CA19-9 IP/MS relative abundance): 0.455; 20 0H 5B1 (CA19-9 IP/MS relative abundance): 2.689; 20 0H NS19 (CA19-9 IP/MS relative abundance): 0.427; 20 8H 5B1 (CA19-9 IP/MS relative abundance): 2.871; 20 8H NS19 (CA19-9 IP/MS relative abundance): 0.338
Q68FD5					1	3.203	0.654	2.822	
Q01853	1.814	0.773	1	1.283					
Q04447	2.713	0.673	1	1.888					

— patent US12378320B2, “Methods for treating pancreatitis” (Cold Spring Harbor Laboratory, priority 2018, dated 2025)
